The whole screen tested about 400,000 compounds, of which about 3,700 (0.93%) were called active. The shares of active, inactive and inconclusive entries below differ from those in the screen. Calls come from the whole dose curve; as a rule, active = well fitted inhibition curve with a large enough effect; inconclusive = small, poorly fitted or top-dose-only effect, or another doubt; inactive = no such curve, though single readings can be large or run the other way. Potencies of inconclusive entries are doubtful fits and often do not repeat.
What follows are compounds tested against Vitamin D3 receptor (Homo sapiens) (UniProt P11473) (assay: Inhibitors of the vitamin D receptor (VDR): qHTS). Conditions: VDR-SRC2-3 peptide fluorescence polarization, 2 h; max response, negative = inhibition: stronger effect = lower value.
Method in brief: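 FP read-out; VDR + SRC2-3 coactivator peptide; 23 nl compound by pintool; 2 h RT incubation; reagents held at 4 deg C, protected from light.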
% is set by controls: 0 for no effect and ±100 for the full control effect; potency is the fitted concentration of half-maximal effect.

By UniProt entry, the sequences of proteins in these tests, tags left out. Where a name states a change or a piece, a line headed by the entry shows the natural chain unless it says otherwise.
UniProt P11473: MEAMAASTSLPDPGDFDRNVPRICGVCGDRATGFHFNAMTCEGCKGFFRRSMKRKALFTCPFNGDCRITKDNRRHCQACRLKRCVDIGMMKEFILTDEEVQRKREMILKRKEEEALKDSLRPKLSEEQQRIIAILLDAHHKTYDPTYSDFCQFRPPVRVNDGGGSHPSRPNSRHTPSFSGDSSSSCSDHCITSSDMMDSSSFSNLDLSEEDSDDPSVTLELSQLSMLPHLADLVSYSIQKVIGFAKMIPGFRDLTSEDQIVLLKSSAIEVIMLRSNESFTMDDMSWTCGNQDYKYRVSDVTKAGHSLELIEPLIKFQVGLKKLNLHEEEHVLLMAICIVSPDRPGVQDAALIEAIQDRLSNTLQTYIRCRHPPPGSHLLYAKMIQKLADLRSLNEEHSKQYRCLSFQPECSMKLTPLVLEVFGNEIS

| SMILES | max response, negative = inhibition | Potency |
| --- | --- | --- |
| COc1ccc(-c2nnc(NC(=O)C3CC3)o2)cc1 | inactive: 1.17% | – |
| CCOc1cc(-c2c(C#N)c(N)nc3c2CCCC3)ccc1O | inactive: 2.01% | – |
| COc1ccc(-c2csc3ncnc(Nc4ccc(O)cc4)c23)cc1 | – | inconclusive: 100 µM [inhibitor, single point] |
| Cc1ccc(C2CC2c2n[nH]c(=S)n2-c2cccc(Cl)c2)cc1 (stereo not given) | inactive: -21.3% | – |
| O=S(=O)(NC1CC1)c1ccc2c3c(cccc13)CC2 | – | inconclusive: 89.1 µM [inhibitor, single point] |
| CC12CCC(c3c1nc1ccccc1[n+]3[O-])C2(C)C (stereo not given) | – | active: 70.8 µM |
| FC(F)(F)c1ccccc1-c1nc(N2CCOCC2)c2ccccc2n1 | – | inconclusive: 12.6 µM [inhibitor, full curve] |
| CC(=O)c1ccc(NC(=O)CCc2c(C)nn(-c3ccc(N4CCOCC4)nn3)c2C)cc1 | – | inconclusive: 20 µM [inhibitor, single point] |
| CN1CCN(C(=S)c2cn(CCOc3ccccc3F)c3ccccc23)CC1 | inactive: -27.8% | – |
| COc1ccccc1-n1cnnc1SCC(=O)Nc1cccc(S(N)(=O)=O)c1 | inactive: 9.21% | – |
| COc1ccc2sc(N(CCCN(C)C)C(=O)c3ccc(S(=O)(=O)N4CCCc5ccccc54)cc3)nc2c1 | – | inconclusive: 89.1 µM [inhibitor, single point] |
| CCOC(=O)C1CCN(S(=O)(=O)c2ccc3c(c2)CCN3C(=O)C2CCC2)CC1 | – | inconclusive: 39.8 µM [inhibitor, single point] |
| COc1ccc(S(=O)(=O)N2Cc3ccccc3CC2C(=O)Nc2ccc(C)cc2C)cc1OC (stereo not given) | – | inconclusive: 56.2 µM [inhibitor, partial curve, poor fit] |
| N#Cc1c(-c2ccccc2)nc(SCc2cccc(C(F)(F)F)c2)[nH]c1=O | – | active: 79.4 µM |
| CCN1CCC(O)(/C=C/c2ccc(C)cc2)C(C(=O)/C=C/c2ccc(C)cc2)C1 (stereo not given) | – | active: 25.1 µM |
| CCCCCn1c(=O)c2ccccc2n2c(=S)[nH]nc12 | – | inconclusive: 89.1 µM [inhibitor, partial curve, poor fit] |
| O=S(=O)(Nc1cc(Sc2cccc3cccnc23)c(O)c2ccccc12)c1ccc(F)cc1 | – | active: 22.4 µM |
| Cc1onc(-c2ccccc2)c1C(=O)N(Cc1ccccn1)Cc1ccccn1 | inactive: 0.785% | – |
| COC(=O)c1[nH]c2cc(OC)c(OC)cc2c1/C=N/Nc1ccccc1 | inactive: 5.97% | – |
| O=C(Nc1ccc(OCc2ccccc2)cc1)c1cccc([N+](=O)[O-])c1 | inactive: -2.46% | – |

— PubChem BioAssay AID504847 (National Center for Advancing Translational Sciences (NCATS), 2011)
